Among the data in PubChem BioAssay AID192 (DTP/NCI, 2004) are T/C and survivor count values, retold here.

The test has as its system BDF1 mice, B16 melanoma ip, median survival T/C. Put plainly: NCI In Vivo Anticancer Drug Screen. Data for tumor model B16 Melanoma (intraperitoneal) in B6D2F1 (BDF1) mice. Conditions: T/C endpoint: median survival time, higher T/C = longer survival. A digest of the protocol:
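Survival or tumor size is measured after treatment of tumor-bearing mice and normalised to the vehicle-treated control group.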

[1] abbreviates: dose: 100.0 mg/kg/injection, schedule: Q01DX009 (ip), vehicle: saline with Tween-80.
The mark [2] stands for this setting: dose: 200.0 mg/kg/injection, schedule: Q01DX009 (ip), vehicle: saline with Tween-80.
The mark [3] stands for this setting: dose: 400.0 mg/kg/injection, schedule: Q01DX009 (ip), vehicle: saline with Tween-80.
The mark [4] stands for this setting: dose: 50.0 mg/kg/injection, schedule: Q01DX009 (ip), vehicle: saline with Tween-80.
Where [5] appears, read: dose: 100.0 mg/kg/injection, schedule: Q01DX009 (ip), vehicle: Klucel (hydroxypropylcellulose) (HPC).
Setting [6] is: dose: 200.0 mg/kg/injection, schedule: Q01DX009 (ip), vehicle: Klucel (hydroxypropylcellulose) (HPC).
Setting [7] is: dose: 3.0 mg/kg/injection, schedule: Q01DX009 (ip), vehicle: saline.
Setting [8] is: dose: 25.0 mg/kg/injection, schedule: Q01DX009 (ip), vehicle: saline with Tween-80.
[9] abbreviates: dose: 12.5 mg/kg/injection, schedule: Q01DX009 (ip), vehicle: saline.
[10] abbreviates: dose: 25.0 mg/kg/injection, schedule: Q01DX009 (ip), vehicle: saline.
[11] abbreviates: dose: 50.0 mg/kg/injection, schedule: Q01DX009 (ip), vehicle: saline.

The list does not hold the whole screen: it gathers tests that were run many times, whatever their T/C, doses with no T/C, and many T/C values between a quarter and a half above the control. Further doses and runs are listed elsewhere. T/C: endpoint of the treated group in % of that of the vehicle group. Some doses have a count of surviving animals in place of a T/C: the source holds a T/C of zero for them, seemingly a mark for toxic or unscored doses. Some survivor counts are full or nearly so, which does not show that the dose was tolerated: survival well below the control is almost never listed, so the zero probably covers shortened survival too. Survivors were counted at the toxicity check, usually on the fifth day, unless a day is given; later deaths do not show. Schedule codes are those of the source, read here as Q, the interval in days (D) or hours (H), X, the number of doses. Where survival is the endpoint, the PubChem record calls one and a half times the control and up active, and a quarter to a half above the control has no call in these data; cut-offs in other NCI protocols can differ. Some doses were run more than once; the results are listed from low to high.

For `CC(=O)Oc1ccc(Nc2c3ccccc3nc3ccccc23)cc1`, the T/C is, setting by setting: (dose: 15.0 mg/kg/injection, schedule: Q01DX009 (ip), vehicle: saline with Tween-80) 125 and 138 % of control; (dose: 20.0 mg/kg/injection, schedule: Q01DX009 (ip), vehicle: saline with Tween-80) 145 % of control. Besides, the survivor count reads like this: (dose: 44.0 mg/kg/injection, schedule: Q01DX009 (ip), vehicle: saline with Tween-80) 10 of 10; (dose: 60.0 mg/kg/injection, schedule: Q01DX009 (ip), vehicle: saline with Tween-80) 9 of 10; (dose: 66.0 mg/kg/injection, schedule: Q01DX009 (ip), vehicle: saline with Tween-80) 10 of 10; under setting [1], 8 of 10; (dose: 150.0 mg/kg/injection, schedule: Q01DX009 (ip), vehicle: saline with Tween-80) 4 of 10.
As to `COc1ccccc1C(C#N)N1CCCN(C(C#N)c2ccccc2OC)C1c1cc(Cl)cc(Cl)c1O` (stereo not given), the survivor count by setting is: under setting [1], 10 of 10; under setting [2], 10 of 10; under setting [3], 10 of 10.
On to `Cc1c(Cl)ccc2c(C(O)CBr)cc(-c3ccccc3)nc12` (stereo not given), for which the survivor count under setting [3] is given as 10 of 10.
In the case of `C[CH2][Ge]1([CH2]C)[CH2]CC2(CCN(CCCN(C)C)C2)C[CH2]1`, the survivor count reads like this: (dose: 4.0 mg/kg/injection, schedule: Q02DX009 (ip), vehicle: saline) 6 of 6; (dose: 64.0 mg/kg/injection, schedule: Q02DX009 (ip), vehicle: saline) 6 of 6.
Take `O=c1cc[nH]c(=O)o1`: the survivor count was 9 of 10 (dose: 50.0 mg/kg/injection, schedule: Q01DX009 (ip), vehicle: water) and 0 of 10 (dose: 100.0 mg/kg/injection, schedule: Q01DX009 (ip), vehicle: water).
With `CC1(C)N=C(N)N=C(N)N1c1cccc(CCCCc2cccc(S(=O)(=O)F)c2)c1`, the survivor count under setting [4] is given as 4 of 10.
Consider `Cn1c(=O)c2[nH]c(Cc3ccsc3)nc2n(C)c1=O`, for which the survivor count was 10 of 10 under setting [5]; 10 of 10 under setting [6]; 3 of 10 (dose: 400.0 mg/kg/injection, schedule: Q01DX009 (ip), vehicle: Klucel (hydroxypropylcellulose) (HPC)).
Regarding `CCCCC(=O)NN`, the survivor count under setting [1] was 10 of 10.
Take `CCCCCCCCCCCCCCOC(=O)Cl`: the survivor count under setting [6] is given as 10 of 10.
In the case of `C=CCN1C(=O)C=CC1=O`, the survivor count is given as 10 of 10 under setting [7] and 6 of 10 (dose: 6.0 mg/kg/injection, schedule: Q01DX009 (ip), vehicle: saline).
In the case of `C=CC(=O)NCNC(=O)C=C`, the survivor count is 2 of 10 under setting [2]; 10 of 10 (dose: 200.0 mg/kg/injection, schedule: Q01DX009 (ip), vehicle: saline); 0 of 10 under setting [3]; 0 of 10 (dose: 400.0 mg/kg/injection, schedule: Q01DX009 (ip), vehicle: saline).
With `O=C(/C(=N\Nc1ccc([N+](=O)[O-])cc1)c1ccccc1)c1ccccc1`, the survivor count under setting [8] is 10 of 10.
Turning to `CC(=O)[O][Pb]([CH2]C(C)C)([CH2]C(C)C)[CH2]C(C)C`, the survivor count was 10 of 10 (dose: 1.5 mg/kg/injection, schedule: Q01DX009 (ip), vehicle: Klucel (hydroxypropylcellulose) (HPC)); 6 of 10 (dose: 3.0 mg/kg/injection, schedule: Q01DX009 (ip), vehicle: Klucel (hydroxypropylcellulose) (HPC)); 9 of 10 (dose: 6.0 mg/kg/injection, schedule: Q01DX009 (ip), vehicle: Klucel (hydroxypropylcellulose) (HPC)); 3 of 10 (dose: 12.0 mg/kg/injection, schedule: Q01DX009 (ip), vehicle: Klucel (hydroxypropylcellulose) (HPC)).
Turning to `CCC(=O)c1ccc2c(c1)N(CCCN(C)C)c1ccccc1S2`, the survivor count under setting [8] is 9 of 10 and the survivor count under setting [4] was 0 of 10.
For the molecule `CCCCCCCCCCCCCCCCCC(=O)NN`, the survivor count (dose: 200.0 mg/kg/injection, schedule: Q01DX009 (ip), vehicle: carboxymethylcellulose (CMC)) is given as 10 of 10 and the survivor count (dose: 400.0 mg/kg/injection, schedule: Q01DX009 (ip), vehicle: carboxymethylcellulose (CMC)) is reported as 9 of 10.
Take `Cc1ccc([N+](=O)[O-])cc1NC(=O)Oc1ccc(Cl)cc1Cl`: the survivor count under setting [1] is listed as 10 of 10.
For `CC[n+]1c(-c2ccccc2)c2cc(N)ccc2c2ccc(N)cc21`, the T/C runs as follows: (dose: 6.25 mg/kg/injection, schedule: Q01DX009 (ip), vehicle: saline) 135 % of control; (dose: 12.0 mg/kg/injection, schedule: Q01DX009 (ip), vehicle: water) 135 % of control; under setting [9], 135 % of control. For the same molecule, the survivor count is 6 of 6 (dose: 16.0 mg/kg/injection, schedule: Q01DX009 (ip), vehicle: saline sonified); 10 of 10 under setting [10]; 6 of 6 (dose: 32.0 mg/kg/injection, schedule: Q01DX009 (ip), vehicle: saline sonified); 10 of 10 under setting [11].
`O=c1oc(-c2ccccc2Cl)nc2cc(Cl)ccc12`: under setting [5], the survivor count is listed as 0 of 10.
As for `COc1cccc2c1C(=O)c1c(O)c3c(c(O)c1C2=O)C[C@@](O)(C(C)=O)C[C@@H]3OC1CC(N2CCOCC2C#N)C(O)C(C)O1` (stereo not given in full), the T/C was 129 % of control (dose: 18.75 micrograms/kg/injection, schedule: Q01DX001 (ip), vehicle: distilled water + Tween-80); 137 % of control (dose: 37.5 micrograms/kg/injection, schedule: Q01DX001 (ip), vehicle: distilled water + Tween-80); 129 % of control (dose: 37.5 micrograms/kg/injection, schedule: Q01DX001 (ip), vehicle: water); 134 % of control (dose: 75.0 micrograms/kg/injection, schedule: Q01DX001 (ip), vehicle: distilled water + Tween-80); 141 % of control (dose: 150.0 micrograms/kg/injection, schedule: Q01DX001 (ip), vehicle: distilled water + Tween-80); 136 % of control (dose: 150.0 micrograms/kg/injection, schedule: Q01DX001 (ip), vehicle: water). Where the note is “dose: 300.0 micrograms/kg/injection, schedule: Q01DX001 (ip), vehicle: water”, the T/C was 134 % of control.
For the molecule `CCN(CC)CCCC(C)Nc1c2ccc(Cl)cc2nc2cc(Cl)ccc12` (stereo not given), the survivor count under setting [5] was 7 of 10.
As to `CCN(CC)CCSC(=S)N1c2ccccc2Sc2ccccc21`, the survivor count by setting is: (dose: 0.54 mg/kg/injection, schedule: Q01DX009 (ip), vehicle: Klucel (hydroxypropylcellulose) (HPC)) 6 of 10; (dose: 35.0 mg/kg/injection, schedule: Q01DX009 (ip), vehicle: Klucel (hydroxypropylcellulose) (HPC)) 9 of 10; (dose: 70.0 mg/kg/injection, schedule: Q01DX009 (ip), vehicle: Klucel (hydroxypropylcellulose) (HPC)) 10 of 10; (dose: 140.0 mg/kg/injection, schedule: Q01DX009 (ip), vehicle: Klucel (hydroxypropylcellulose) (HPC)) 10 of 10; (dose: 280.0 mg/kg/injection, schedule: Q01DX009 (ip), vehicle: Klucel (hydroxypropylcellulose) (HPC)) 10 of 10.
On to `COc1cc2cc[n+]3c(C)c4cc5c(cc4cc3c2cc1OC)OCO5` (tested in a mixture with another compound), for which the survivor count is on record as 10 of 10 under setting [10] and 9 of 10 under setting [11].
Regarding `c1ccc(C2=C([P+](c3ccccc3)(c3ccccc3)c3ccccc3)CCO2)cc1`, the T/C runs as follows: (dose: 1.5 mg/kg/injection, schedule: Q01DX009 (ip), vehicle: saline) 133 % of control; under setting [7], 138 % of control. Moreover, the survivor count was 9 of 10 under setting [9] and 1 of 10 under setting [10].
`CCCCNC(C)(C)C(SSSC(c1ccc(Cl)cc1)C(C)(C)NCCCC)c1ccc(Cl)cc1` (stereo not given): the survivor count (dose: 50.0 mg/kg/injection, schedule: Q01DX009 (ip), vehicle: Klucel (hydroxypropylcellulose) (HPC)) was 10 of 10.
